Experimental findings from PubChem BioAssay AID1347423 (Functional Genomics Laboratory (NCATS/FGL), 2020) are described below.

Out of some 52,000 sequences screened, about 210 (0.4%) were called active.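 How the source made its calls: active means gene whose silencing raises cell survival under the drug, median off-target-corrected z-score across its silencing RNAs 2 or more; inactive means the rest.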 The list shows a part of the results.

The nature of the assay: Resistance to Poly (ADP-Ribose) Polymerase inhibitor: Gene Identification via Genome-wide siRNA Screen. As to conditions: mouse BRCA2 R2336H ES cells, olaparib, CellTiter-Glo viability; hits give high values. Put shortly: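 Mouse BRCA2 R2336H ES cells were reverse-transfected with siRNA (20 nM final), treated at 48 h with 500 nM olaparib, and read by CellTiter-Glo after 72 h. Scores: MAD-based z per siRNA, median per gene, seed off-target correction.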
In general terms: In ATP-based viability assays light output follows the ATP content of the culture.
For the sequence GGUAGAAAUCAUUCUCUUUTT against Olfr1037, the z-score was inactive: 0.898.

As for GGUUCCCAAAGUAGAAGCATT against Dkkl1, the z-score is inactive: 0.582.

GGAAUAAUUUCUGGAUUCUTT against Maoa: the z-score is inactive: 0.165.

GCUAAAUCAGCGUAUGAUGTT against BC026374: the z-score is inactive: -0.287.

As to GGGCAAAUGACUUGGUGAATT against Maged2, the z-score was inactive: -0.113.

As for CCUUUGUAGGAACAAUUUATT against Phlda1, the z-score is inactive: 0.997.

For “GGAGAAAUUCAUGACCAUGTT against 2210413P12Rik”, the z-score was inactive: 0.19.

GGAAACAACUUUUUGCUUUTT against Gig1: the z-score was inactive: 0.785.

In the case of CCACCAUGACAAAACGUGUTT against Olfr1459, the z-score is inactive: 1.56.

For GACAACAAGGUGGCUUCGGTT against Tlx2, the z-score is inactive: -0.424.

For the sequence GGGCACACAUAUGACCGUUTT against Rrad, the z-score was inactive: -1.23.

In the case of “CCUGAAACAUUCAGUGUCUTT against 9430083G14Rik”, the z-score is inactive: 1.55.

As for GCCAAUACGACUGAUGAGCTT against Cst10, the z-score was inactive: -0.26.

With GUUUCUCCAUGGAGUCAUUTT against Psmb5, the z-score is inactive: -2.15.

Turning to GGGAAGAACUGUGAUUAUUTT against Hspd1, the z-score was inactive: -2.

As for GAUAUAGUCACAGUGUUUUTT against V1ri5, the z-score is inactive: 0.932.

As for “CCAGUGCCUCAAGCUUUCATT against 4930471M23Rik”, the z-score is inactive: 0.123.

For the sequence GGAGAAGGAUGGAGUGUUUTT against Brms1l, the z-score is inactive: 0.182.

With GUGUUUCUUGUUGUGUACATT against Olfr1013, the z-score was inactive: -0.705.

With “GGCCAAAAGUAUGAAAGUATT against 9030418M05Rik”, the z-score was inactive: -0.83.

For the sequence GGCUUCUCCAACACUAAGATT against Smtn, the z-score was inactive: 0.17.

In the case of GGGCAUGGAGGAGUACAUUTT against Cml1, the z-score was inactive: 0.471.

With GGCACUGAUAAGAAGUACCTT against Dnahc1, the z-score was inactive: 0.812.

For the sequence “GUAUGACCAGAAGAAAAAGTT against 1700108M19Rik”, the z-score was inactive: -2.92.

For GGACAUGAAGACCAAGAUGTT against Cpox, the z-score is inactive: 1.05.

As for GCCGCUGUCCUACAAGUUATT against Lmo1, the z-score is inactive: 2.43.

In the case of “GGUCAUUGUCAGUACCGGATT against 4930444A02Rik”, the z-score is inactive: 0.561.

In the case of GUUGCUAAUAUCCUGUCUGTT against Olfr115, the z-score is inactive: -0.655.

As to CCGCCAACACCUUUGUUUUTT against Cyp1b1, the z-score was inactive: 0.217.
